No constants are given. Whether binding was seen depends on the method and setting.
Assays:
[1] = biological target: recombinant full-length VAR2CSA-type PfEMP1 IT4VAR04 (FV2) (P. falciparum IT4); assay: ELISA; MaxiSorp plates coated with recombinant PfEMP1 constructs (18 nM, overnight, 4°C); blocked in TSM buffer with 1% Ig-free BSA; α2M or α2M-MA (10 nM; titrated in Fig 2A); detected with anti-α2M antibodies; both purified
[2] = biological target: PfEMP1 protein HB3VAR03 on infected erythrocytes (P. falciparum HB3); assay: flow cytometry on cells; late-stage infected erythrocytes (1x10^5) incubated 30 min at room temperature with α2M or α2M-MA (10 nM; titrated in Fig 2B) or IgM; detected with anti-α2M or anti-human IgM antibodies; in competition assays α2M and IgM added in separate steps; only the binder purified
[3] = biological target: PfEMP1 protein IT4VAR09 on infected erythrocytes (P. falciparum IT4); assay: as above

Measured: binding

B1: α2-macroglobulin (α2M), native (protein, UniProt P01023 24-1474)
chain: SVSGKPQYMVLVPSLLHTETTEKGCVLLSYLNETVTVSASLESVRGNRSLFTDLEAENDVLHCVAFAVPKSSSNEEVMFLTVQVKGPTQEFKKRTTVMVKNEDSLVFVQTDKSIYKPGQTVKFRVVSMDENFHPLNELIPLVYIQDPKGNRIAQWQSFQLEGGLKQFSFPLSSEPFQGSYKVVVQKKSGGRTEHPFTVEEFVLPKFEVQVTVPKIITILEEEMNVSVCGLYTYGKPVPGHVTVSICRKYSDASDCHGEDSQAFCEKFSGQLNSHGCFYQQVKTKVFQLKRKEYEMKLHTEAQIQEEGTVVELTGRQSSEITRTITKLSFVKVDSHFRQGIPFFGQVRLVDGKGVPIPNKVIFIRGNEANYYSNATTDEHGLVQFSINTTNVMGTSLTVRVNYKDRSPCYGYQWVSEEHEEAHHTAYLVFSPSKSFVHLEPMSHELPCGHTQTVQAHYILNGGTLLGLKKLSFYYLIMAKGGIVRTGTHGLLVKQEDMKGHFSISIPVKSDIAPVARLLIYAVLPTGDVIGDSAKYDVENCLANKVDLSFSPSQSLPASHAHLRVTAAPQSVCALRAVDQSVLLMKPDAELSASSVYNLLPEKDLTGFPGPLNDQDNEDCINRHNVYINGITYTPVSSTNEKDMYSFLEDMGLKAFTNSKIRKPKMCPQLQQYEMHGPEGLRVGFYESDVMGRGHARLVHVEEPHTETVRKYFPETWIWDLVVVNSAGVAEVGVTVPDTITEWKAGAFCLSEDAGLGISSTASLRAFQPFFVELTMPYSVIRGEAFTLKATVLNYLPKCIRVSVQLEASPAFLAVPVEKEQAPHCICANGRQTVSWAVTPKSLGNVNFTVSAEALESQELCGTEVPSVPEHGRKDTVIKPLLVEPEGLEKETTFNSLLCPSGGEVSEELSLKLPPNVVEESARASVSVLGDILGSAMQNTQNLLQMPYGCGEQNMVLFAPNIYVLDYLNETQQLTPEIKSKAIGYLNTGYQRQLNYKHYDGSYSTFGERYGRNQGNTWLTAFVLKTFAQARAYIFIDEAHITQALIWLSQRQKDNGCFRSSGSLLNNAIKGGVEDEVTLSAYITIALLEIPLTVTHPVVRNALFCLESAWKTAQEGDHGSHVYTKALLAYAFALAGNQDKRKEVLKSLNEEAVKKDNSVHWERPQKPKAPVGHFYEPQAPSAEVEMTSYVLLAYLTAQPAPTSEDLTSATNIVKWITKQQNAQGGFSSTQDTVVALHALSKYGAATFTRTGKAAQVTIQSSGTFSSKFQVDNNNRLLLQQVSLPELPGEYSMKVTGEGCVYLQTSLKYNILPEKEEFPFALGVQTLPQTCDEPKAHTSFQISLSVSYTGSRSASNMAIVDVKMVSGFIPLKPTVKMLERSNHVSRTEVSSNHVLIYLDKVSNQTLSLFFTVLQDVPVRDLKPAIVKVYDYYETDEFAIAEYNAPCSKDLGNA
no binding (tested: 10 nM): all assays above

Source: paper PMC4489720
